Data source: PubChem BioAssay AID504808 (Drosophila RNAi Screening Center, 2011)
In all, the deposit lists about 21,000 reagents; below is a random part of those that have a named target and a result. In the full data, 18 (0.084%) got an active call. 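Raw counts without plate normalisation, one of two replicates; the ratio scores behind the calls were not deposited.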 A number with no mark means an inactive call. A plus sign joins genes that one reagent is predicted to hit. Not stated in the record: the amount of reagent, the time to read-out.

- Screen: 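Genes whose loss lifts activity of an E2F-responsive reporter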 (primary screen)
- System: Drosophila S2 cells
- Reagent: long dsRNA against Drosophila genes
- Detection: 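Dual luciferase plate measurements; E2F-specific signal taken as firefly over Renilla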
- Direction: E2F firefly: higher = more E2F reporter activity; Renilla normaliser: higher = more normaliser reporter signal
- Active means: 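Called active if the normalised E2F reporter went up by over 50%; the cutoff is arbitrary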

| target | amplicon | E2F firefly, rep 1 | Renilla normaliser, rep 1 |
| --- | --- | --- | --- |
| Adck5 (aarF domain containing kinase 5) | DRSC10890 | 1.26e5 | 6917 |
| PGRP-LA (Peptidoglycan recognition protein LA) | DRSC10327 | 1.11e5 | 5539 |
| PGRP-LA (Peptidoglycan recognition protein LA) | DRSC10414 | 1.04e5 | 5718 |
| CG30127 (retired record) | DRSC05785 | 1.56e5 | 5165 |
| CG30127 (retired record) | DRSC05786 | 1.35e5 | 5201 |
| CG11617 | DRSC00321 | 1.54e5 | 5628 |
| CG18507 | DRSC01334 | 1.32e5 | 6339 |
| CG18507 | DRSC01914 | 1.06e5 | 4127 |
| CG2200 | DRSC19840 | 73962 | 4696 |
| Vps35 (Vacuolar protein sorting 35) | DRSC04519 | 78942 | 3509 |
| CG13285 | DRSC09960 | 87123 | 3976 |
| Wdr33 (WD repeat domain 33) | DRSC12162 | 69043 | 3273 |
| CG4592 | DRSC02761 | 91490 | 3889 |
| GstT1 (Glutathione S transferase T1) | DRSC06243 | 1.42e5 | 5010 |
| CG42307 + mus312 | DRSC11008 | 96040 | 4084 |
| Lnpk (Lunapark) | DRSC07254 | 3484 | 277 |
| CG5793 | DRSC15874 | 1.22e5 | 6586 |
| Ing3 (Inhibitor of growth family, member 3) | DRSC20002 | 1.72e5 | 3873 |
| CG15127 | DRSC05802 | 1.71e5 | 7403 |
| CG15127 | DRSC06549 | 1.50e5 | 4899 |
| RpS13 (Ribosomal protein S13) | DRSC03419 | 64181 | 3785 |
| betaggt-I (beta subunit of type I geranylgeranyl transferase) | DRSC03494 | 1.50e5 | 5135 |
| CG10444 | DRSC05990 | 62298 | 3533 |
| CG17734 | DRSC15256 | 1.43e5 | 6562 |
| Cyp303a1 (Cytochrome P450 303a1) | DRSC03300 | 1.11e5 | 4673 |
| be (ben) | DRSC19607 | 8206 | 768 |
| be (ben) | DRSC19944 | 1.28e5 | 6488 |
| be (ben) | DRSC19945 | 1.54e5 | 6611 |
| CG11911 | DRSC00331 | 87673 | 4235 |
| CAP | DRSC05215 | 1.28e5 | 4276 |
| CAP | DRSC06743 | 3042 | 208 |
| CAP | DRSC06744 | 1.37e5 | 5551 |
| CAP | DRSC06745 | 1.60e5 | 4852 |
| CAP | DRSC06846 | 1.56e5 | 4568 |
| Or23a (Odorant receptor 23a) | DRSC00767 | 1.74e5 | 6042 |
| jub (Ajuba LIM protein) | DRSC19367 | 6506 | 812 |
| Blm (Bloom syndrome helicase) | DRSC16911 | 79579 | 3146 |
| hdm (hold'em) | DRSC18013 | 59809 | 3999 |
| Roc2 (Regulator of cullins 2) | DRSC07313 | 93980 | 3788 |
| Trmt61 (tRNA methyltransferase 61) | DRSC14888 | 1.04e5 | 5399 |
| fzr (fizzy-related) | DRSC18781 | 54924 | 8470 |
| Pebp1 (Phosphatidylethanolamine-binding protein 1) | DRSC15354 | 1.38e5 | 7172 |
| wde (windei) | DRSC05955 | 3298 | 45 |
| yellow-e2 | DRSC15169 | 1.00e5 | 5643 |
| Dis3l2 (Dis3 like 3'-5' exoribonuclease 2) | DRSC08496 | 81999 | 3215 |
| CG18558 | DRSC00525 | 1.61e5 | 5415 |
| CG4892 | DRSC01937 | 1.08e5 | 3646 |
| CG1647 | DRSC15134 | 1957 | 868 |
| Ttc19 (Tetratricopeptide repeat domain 19) | DRSC02474 | 1.06e5 | 4453 |
| CG3061 | DRSC15460 | 98319 | 5538 |
| CG42272 | DRSC08766 | 1.43e5 | 4142 |
| CG5665 | DRSC11783 | 1.30e5 | 5668 |
| l(3)psg2 (lethal (3) persistent salivary gland 2) | DRSC10484 | 75895 | 3959 |
| yata | DRSC15408 | 1.24e5 | 6532 |
| CG12560 | DRSC02174 | 1.51e5 | 5770 |
| Mlc-c (Myosin light chain cytoplasmic) | DRSC18683 | 8670 | 828 |
| pdgy (pudgy) | DRSC19064 | 87295 | 2935 |
| pdgy (pudgy) | DRSC19341 | 8223 | 708 |
| Oatp74D (Organic anion transporting polypeptide 74D) | DRSC09491 | 1.29e5 | 3779 |
| Oatp74D (Organic anion transporting polypeptide 74D) | DRSC10883 | 61958 | 3163 |
| PolD2 (DNA polymerase delta subunit 2) | DRSC08147 | 66679 | 3759 |
| GCS1 (Glucosidase 1) | DRSC19744 | 7623 | 728 |
| AstCC (Allatostatin double C) | DRSC02404 | 1.44e5 | 5136 |
| CG8813 | DRSC00706 | 90571 | 3676 |
| CG18823 | DRSC18168 | 54255 | 6172 |
| Cht11 (Chitinase 11) | DRSC18270 | 51600 | 3377 |
| Nost (Nostrin) | DRSC18037 | 38413 | 3027 |
| Nost (Nostrin) | DRSC18338 | 47018 | 3633 |
| Grip163 | DRSC10538 | 1.32e5 | 5300 |
| CG43672 | DRSC19452 | 1.58e5 | 6087 |
| CG43672 | DRSC20108 | 1.54e5 | 6317 |

Laid out differently: results already given
target | amplicon | E2F firefly, rep 1 | Renilla normaliser, rep 1
be (ben) | DRSC19944 | 1.28e5 | 6488
be (ben) | DRSC19945 | 1.54e5 | 6611
CG11911 | DRSC00331 | 87673 | 4235
CAP | DRSC05215 | 1.28e5 | 4276
CAP | DRSC06743 | 3042 | 208
CAP | DRSC06744 | 1.37e5 | 5551
CAP | DRSC06745 | 1.60e5 | 4852
CAP | DRSC06846 | 1.56e5 | 4568
Or23a (Odorant receptor 23a) | DRSC00767 | 1.74e5 | 6042
jub (Ajuba LIM protein) | DRSC19367 | 6506 | 812
Blm (Bloom syndrome helicase) | DRSC16911 | 79579 | 3146
hdm (hold'em) | DRSC18013 | 59809 | 3999
Roc2 (Regulator of cullins 2) | DRSC07313 | 93980 | 3788
Trmt61 (tRNA methyltransferase 61) | DRSC14888 | 1.04e5 | 5399
fzr (fizzy-related) | DRSC18781 | 54924 | 8470
Pebp1 (Phosphatidylethanolamine-binding protein 1) | DRSC15354 | 1.38e5 | 7172
wde (windei) | DRSC05955 | 3298 | 45
yellow-e2 | DRSC15169 | 1.00e5 | 5643

More reagents:
| target | amplicon | E2F firefly, rep 1 | Renilla normaliser, rep 1 |
| --- | --- | --- | --- |
| tomboy40 | DRSC04918 | 84107 | 3750 |
| CG33340 | DRSC14615 | 1.05e5 | 6324 |
| ACXB (Adenylyl cyclase X B) | DRSC00845 | 1.08e5 | 4137 |
| Taf12 (TBP-associated factor 12) | DRSC16879 | 70046 | 3773 |
| CG8993 | DRSC08616 | 1.02e5 | 4118 |
| CG34007 | DRSC01790 | 1.15e5 | 4479 |
| Rsbp15 (Radial spoke binding protein 15) | DRSC14176 | 1.40e5 | 6522 |
| CG11771 | DRSC14379 | 74538 | 3233 |
| CG8774 | DRSC16445 | 74639 | 3045 |
| St3 (Sulfotransferase 3) | DRSC04505 | 81124 | 3590 |
| Sp7 (Serine protease 7) | DRSC15461 | 1.53e5 | 7603 |
| CG9500 | DRSC03237 | 1.73e5 | 5411 |
| CG3368 | DRSC15485 | 1776 | 856 |
| CG9578 | DRSC20694 | 1.44e5 | 5825 |
| CG13326 | DRSC06363 | 107 | 41 |
| grnd (grindelwald) | DRSC02020 | 1.04e5 | 4168 |
| SmD1 (Small ribonucleoprotein particle protein SmD1) | DRSC09800 | 71105 | 5283 |
| eIF3d1 (eukaryotic translation initiation factor 3 subunit d1) | DRSC16938 | 61615 | 4989 |
| CG10222 | DRSC09714 | 1.20e5 | 6509 |
| VGlut (Vesicular glutamate transporter) | DRSC00733 | 1.64e5 | 5576 |
| CG10752 | DRSC09799 | 81132 | 3472 |
| CG31793 | DRSC02605 | 1.12e5 | 4634 |
| RpL29 (Ribosomal protein L29) | DRSC04650 | 1.09e5 | 4455 |
| PHDP (Putative homeodomain protein) | DRSC04635 | 1.00e5 | 4185 |
| ste24b (ste24b prenyl protease type I) | DRSC07315 | 1.43e5 | 4815 |
| GABPI (beta4GalNAcTB pilot) | DRSC00494 | 90215 | 3725 |
| S6KL (S6 Kinase Like) | DRSC19349 | 1.42e5 | 5229 |
| CG7309 | DRSC03045 | 1.37e5 | 4828 |
| CG12182 | DRSC08142 | 69000 | 3276 |
| CG15393 (retired record) | DRSC00407 | 1.62e5 | 5668 |
| bap (bagpipe) | DRSC16908 | 66688 | 3637 |
| Ufd1 (Ubiquitin fusion-degradation 1-like) | DRSC10607 | 82087 | 3772 |
| CG5989 | DRSC10565 | 74249 | 3843 |
| CG31807 | DRSC01550 | 1.32e5 | 5554 |
| RpL37-2 (Ribosomal protein L37-2) | DRSC04584 | 1.01e5 | 3763 |
| CG33914 | DRSC05033 | 1.36e5 | 6165 |
